# Test results: PubChem BioAssay AID504834 (National Center for Advancing Translational Sciences (NCATS), 2011)
# The whole screen tested about 320,000 compounds, of which about 22,000 (6.9%) were called active. The shares of active, inactive and inconclusive entries below differ from those in the screen. The call rests on the fitted dose curve; in most records, active means well fitted inhibition curve with a large enough effect; inconclusive means small, poorly fitted or top-dose-only effect, or another doubt; inactive means no such curve, though single readings can be large or run the other way. Potencies of inconclusive entries are doubtful fits and often do not repeat.
# Assay: Primary qHTS for delayed death inhibitors of the malarial parasite plastid, 96 hour incubation
# Conditions: P. falciparum luciferase reporter growth; series mostly up to 28.7 µM
# How it was run: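 Erythrocytes infected with luciferase-expressing P. falciparum were dispensed at 2% hematocrit and 0.05% parasitemia (final), then incubated with compounds 96 hours at 37 C in 5% CO2. Luminescence after detection reagent addition reported growth.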
# Potency means the concentration at half of the fitted maximal effect.
row,Compound,Potency
1,Cc1cc(C)c(C#N)c(SCC(=O)C(C)(C)C)n1,inactive
2,CCc1cc(C(=O)N2CCCC(Nc3ccc(F)c(F)c3)C2)n(C)n1 (configuration not stated),"inconclusive: 11.7 µM [inhibitor, single point]"
3,COc1ccc(Cl)cc1NC(=O)C(C)NC(c1ccccc1)c1ccccc1 (configuration not stated),active: 2.94 µM
4,O=C(CSc1ncn[nH]1)Nc1nc(-c2cccc([N+](=O)[O-])c2)cs1,inactive
5,CCOc1ccc(CC(=O)N/N=C/c2cccnc2)cc1,inactive
6,O=C(Cn1cnc2scc(-c3ccc(F)cc3)c2c1=O)NCC(c1ccco1)N1CCCC1 (configuration not stated),"inconclusive: 18.5 µM [inhibitor, single point]"
7,Cc1cc2nc(-c3ccc(SCC(=O)N4CCc5ccccc54)nc3)[nH]c2cc1C,"inconclusive: 1.04 µM [inhibitor, partial curve, poor fit]"
8,CC1CCCCC12NC(=O)N(CC(=O)Nc1sccc1C(N)=O)C2=O (configuration not stated),inactive
9,COC(=O)C1=C(c2c(C)noc2C)C[C@@H]2CC[C@H]1N2C(=O)NCCCOC(C)C,"inconclusive: 0.0586 µM [inhibitor, full curve, poor fit]"
10,CCOC(=O)C1=C(c2ccccc2)NC(=O)NC1c1ccc(O)c(OCC)c1 (configuration not stated),inactive
11,Cc1onc(C(=O)Nc2ccc3c(c2)OCO3)c1[N+](=O)[O-],"inconclusive: 16.5 µM [inhibitor, single point]"
12,C#CCOCCOCCOCCNc1nc(N2CCN(C(=O)CCCCCCCCCCNC(=O)[C@@H](CCSC)n3cc(CCO)nn3)CC2)nc(N2CCN(C(=O)CCCCCCCCCCNC(=O)[C@H]([C@@H](C)CC)n3cc(CCCCCN)nn3)CC2)n1,active: 2.08 µM
13,CC1(C)CC(=O)C2=C(C1)Nc1ccccc1NC2,inactive
14,COc1ccc2nc(SCC(=O)Nc3nccs3)[nH]c2c1,inactive
15,Cc1c(C(=O)NCCSCc2cccc(C(F)(F)F)c2)cnn1-c1ccc(F)cc1,"inconclusive: 0.415 µM [inhibitor, full curve]"
16,O=C(c1cc(Cl)ccc1Cl)N1CCOCC1,active: 13.1 µM
17,O=C(COC(=O)COc1ccccc1)NC1CCCC1,inactive
18,O=C1CN(C(=O)c2ccc(Br)o2)C(c2ccccc2)c2cc(Br)ccc2N1 (configuration not stated),active: 5.86 µM
19,COc1cc(/C=N/NC(=O)COc2cc(C)cc(C)c2)ccc1OS(=O)(=O)c1ccc(C)cc1,inactive
20,C[C@@H]1O[C@@H](O[C@H]2C[C@@H](O)[C@]3(CO)[C@H]4[C@H](O)C[C@]5(C)[C@@H](C6=CC(=O)OC6)CC[C@]5(O)[C@@H]4CC[C@]3(O)C2)[C@H](O)[C@H](O)[C@H]1O,inactive
21,O=C(COc1ccc2c(c1)CCC2)N1CCc2ccccc21,inactive
22,Cc1cc(C)c(OCCCCN2CCC(C)CC2)c(Br)c1,"inconclusive: 5.22 µM [inhibitor, partial curve, poor fit]"
23,O=C(Nc1nnc(SCc2ccc(F)cc2)s1)c1ccc2c(c1)C(=O)N(c1ccccc1Cl)C2=O,inactive
24,COCCNC(=S)N/N=C(\C)c1ccccc1O,"inconclusive: 4.15 µM [inhibitor, single point]"

# An excerpt of these results, tab-delimited:
row	Compound	Potency
11	Cc1onc(C(=O)Nc2ccc3c(c2)OCO3)c1[N+](=O)[O-]	inconclusive: 16.5 µM [inhibitor, single point]
12	C#CCOCCOCCOCCNc1nc(N2CCN(C(=O)CCCCCCCCCCNC(=O)[C@@H](CCSC)n3cc(CCO)nn3)CC2)nc(N2CCN(C(=O)CCCCCCCCCCNC(=O)[C@H]([C@@H](C)CC)n3cc(CCCCCN)nn3)CC2)n1	active: 2.08 µM
13	CC1(C)CC(=O)C2=C(C1)Nc1ccccc1NC2	inactive
14	COc1ccc2nc(SCC(=O)Nc3nccs3)[nH]c2c1	inactive
15	Cc1c(C(=O)NCCSCc2cccc(C(F)(F)F)c2)cnn1-c1ccc(F)cc1	inconclusive: 0.415 µM [inhibitor, full curve]

# The listing continues.

row,Compound,Potency
1,Cc1ccccc1CN(C)CC(=O)NC(C)CCc1ccccc1 (configuration not stated),inactive
2,CCN(CC)S(=O)(=O)c1cccc(-c2nn(-c3ccccc3)cc2/C=C(\C#N)C(=O)NCc2ccco2)c1,"inconclusive: 18.5 µM [inhibitor, single point]"
3,CCOC(=O)C(O)(c1ccc(N)c(OC)c1)C(F)(F)F (configuration not stated),active: 2.62 µM
4,CCOC(=O)c1c(NC(=O)c2c(C(=O)O)cccc2[N+](=O)[O-])sc(C)c1C,inactive
5,CC(=O)c1cccc(NC(=O)CC2S/C(=N/N=C/c3ccccc3)NC2=O)c1 (configuration not stated),"inconclusive: 9.28 µM [inhibitor, partial curve, poor fit]"
6,CCOc1ccc(NC(=O)CSc2nnc(C3CC3)n2C)cc1S(=O)(=O)N1CCCCC1,"inconclusive: 5.86 µM [inhibitor, partial curve, poor fit]"
7,CCOC(=O)C1CCN(C(=O)CN2C(=O)COc3ccc(C(C)(C)C)cc32)CC1,active: 10.4 µM
8,O=C1c2c(O)cc(O)cc2O[C@@]12c1c(cc(O)c3c1O[C@H](c1ccc(O)cc1)[C@@H](O)C3)O[C@@H]2c1ccc(O)cc1,"inconclusive: 7.38 µM [inhibitor, partial curve, poor fit]"
9,CCOC(=O)c1nn(-c2ccc(Cl)cc2Cl)c(=N)c(C#N)c1C,"inconclusive: 18.5 µM [inhibitor, partial curve, poor fit]"
10,Cc1ccc(C(=O)NCc2cccnc2)cc1S(=O)(=O)Nc1ccccc1,inactive
11,COc1cc(NC(=O)[C@H]2CSCN2C(=O)[C@@H]2CCC(=O)N2)cc(OC)c1OC,"inconclusive: 18.5 µM [inhibitor, single point]"
12,CC(NC(=O)c1cc2cc(Cl)ccc2oc1=N)c1ccccc1 (configuration not stated),inactive
13,Cn1c(=O)[nH]c(=O)c2c1nc(N1CCCC1)n2CCCSc1nc2ccccc2o1,inactive
14,CC1(C)C(C(=O)N2CCN(C(=O)c3ccccc3)CC2)C1(C)C,"inconclusive: 18.5 µM [inhibitor, single point]"
15,CCOc1cc(/C=N\Nc2nc(-c3ccc(C)cc3)c(NC(C)=O)s2)ccc1O,"inconclusive: 1.85 µM [inhibitor, full curve]"
16,COc1cc(C(=O)N2CCN(S(=O)(=O)c3cccs3)CC2)cc(OC)c1C,"inconclusive: 11.7 µM [inhibitor, partial curve]"
17,O=C(c1ccco1)N1CCN(C(c2ccc(F)cc2)c2nnnn2Cc2cccs2)CC1 (configuration not stated),active: 0.928 µM
18,COc1ccc(Cc2nnc(SCC(=O)N3CCCCC3)o2)cc1,inactive
19,N#Cc1nc(Cc2cccc3ccccc23)oc1NCCCn1ccnc1,"inconclusive: 8.28 µM [inhibitor, partial curve]"
20,Cc1ccc(NC(=S)NCc2ccco2)c(C)c1,inactive
21,O=C(/C=C/c1ccco1)Nc1ccc(Cl)c(S(=O)(=O)N2CCOCC2)c1,inactive
22,O=C(NCCN1CCOCC1)c1ccncc1,inactive
23,CC(C)(C)OC(=O)N1CCC[C@H]1c1nnc(SC/C=C/c2ccccc2)o1,"inconclusive: 18.5 µM [inhibitor, single point]"
24,COCCCNC(=O)CS(=O)(=O)Cc1nc(-c2ccccc2C)oc1C,"inconclusive: 18.5 µM [inhibitor, single point]"

row,Compound,Potency
1,O=C(O)c1ccc(S(=O)(=O)/N=C2\C=C(Nc3ccccc3F)C(=O)c3ccccc32)cc1,"inconclusive: 0.0066 µM [inhibitor, full curve, poor fit]"
2,COC(=O)CSc1nc(N)c(C#N)c(-c2ccco2)c1C#N,inactive
3,COc1ccc(N(CC(=O)Nc2cccc(F)c2)S(=O)(=O)c2c(C)[nH]c(=O)[nH]c2=O)cc1,inactive
4,CCCN(C(=O)CSc1nc2c(cnn2-c2ccccc2)c(=O)[nH]1)C1CCS(=O)(=O)C1 (configuration not stated),"inconclusive: 11.7 µM [inhibitor, single point]"
5,O=C(c1cccc(-n2cccc2)c1)N1CCN(S(=O)(=O)c2ccccc2)CC1,"inconclusive: 18.5 µM [inhibitor, single point]"
6,CCOc1ccc(C(=O)NC(=S)NCCCN2CCOCC2)cc1,"inconclusive: 20.8 µM [inhibitor, single point]"
7,COc1cc(OC)cc(C(=O)NC2CCN(C(=O)N3c4ccccc4Sc4ccccc43)CC2)c1,"inconclusive: 8.28 µM [inhibitor, partial curve]"
8,Cc1ccccc1S(=O)(=O)/N=C(/c1ccccc1)N1CCOCC1,"inconclusive: 8.28 µM [inhibitor, single point]"
9,CC(=O)c1ccc(C(=O)N2CCCC(N3CCN(c4ccc(F)cc4)CC3)C2)s1 (configuration not stated),inactive
10,O=C(COc1nncc2ccccc12)Nc1ccc(F)c(F)c1,"inconclusive: 18.5 µM [inhibitor, single point]"
11,COc1cccc(OC)c1C(=O)NC1C(=O)N2C1SC(C)(C)C2C(=O)O (configuration not stated),inactive
12,CCN1CCC[C@H]1CNC(=O)c1c(OC)ccc(Br)c1OC,"inconclusive: 15.1 µM [inhibitor, partial curve]"
13,COc1ccc(C(C#N)C2(C)OCCO2)cc1OC (configuration not stated),inactive
14,O=[N+]([O-])c1ccc(OCCN2CCCCCC2)cc1,"inconclusive: 16.5 µM [inhibitor, single point]"
15,CCOC(=O)c1c(CC(C)C)csc1/N=C/C1C(=O)CC(C)(C)CC1=O,"inconclusive: 10.4 µM [inhibitor, single point]"
16,N#CC(C#N)=C1C=CC=CN1/C(=C\c1ccco1)C(=O)c1ccc(-c2ccccc2)cc1,"inconclusive: 18.5 µM [inhibitor, single point]"
17,Fc1cccc(/C=N/Nc2ccc(Cl)nn2)c1,inactive
18,Cc1cc2c(n1-c1ccc(C(=O)O)cc1)CCCCC2,inactive
19,O=C1C2C3C=CC(C3)C2C(=O)N1c1cccnc1 (configuration not stated),inactive
20,COc1ccccc1COCC(O)CN1CCCCC1CO (configuration not stated),"inconclusive: 14.7 µM [inhibitor, single point]"
21,Nn1c(-c2ccccn2)nnc1-c1ccccn1,"inconclusive: 18.5 µM [inhibitor, single point]"
22,O=C(NCCc1ccccn1)c1n[nH]c(=O)c2ccccc12,active: 13.1 µM
23,OCCNc1nc(Nc2ccc(Cl)c(Cl)c2)nc2ccccc12,"inconclusive: 18.5 µM [inhibitor, single point]"
24,CCc1cc2c(=O)c(-c3nc4ccccc4n3C)c(C)oc2c(CN2CCOCC2)c1O,"inconclusive: 20.8 µM [inhibitor, partial curve, poor fit]"
